For this test, the target named is peptide with N-terminal aspartate. Description: biolayer interferometry (Blitz), peptide-coated sensor, NAAB in 1x PBS, 1:1 fit, kd/ka.

B1: AspNAAB (enzyme)
chain: LPLDSNHVNTEEARLKYRYLDLRRPEMAQRLKTRAKITSLVRRFMDDHGFLDIETPMLTKATPEGARDYLVPSRVHKGKFYALPQSPQLFKQLLMMSGFDRYYQIVKCFRDEDLRADRQPEFTQIDVETSFMTAPQVREVMEALVRHLWLEVKGVDLGDFPVMTFAEAERRYGSDKPDLRNPMELTDVADLLRSVEFAVFAGPANDPKGRVAALRVPGGASLTRKQIDEYDNFVKIYGAKGLAYIKVNERAKGLEGINSPVAKFLNAEIIEAILDRTAAQDGDMIFFGADNKKIVADAMGALRLKVGKDLGLTDESKWAPLWVIDFPMFEDDGEGGLTAMHHPFTSPKDMTAAELKAAPENAVANAYDMVINGYEVGGGSVRIHNGDMQQTVFGILGINEEEQREKFGFLLDALKYGTPPHAGLAFGLDRLTMLLTGTDNIRDVIAFPK
On to B1, for which the affinity, expressed as Kd, was 411 nM.

(Values after patent US20210072252A1 (WASHINGTON UNIVERSITY, published 2021).)
